Reference: article PMC5427856
Results are given in words; binding and its absence hold for the method and conditions named. Binding seen in cells or lysates may run through a third protein. Some binding calls cover weakened binding; strength is not graded here.

Sequences of proteins named here, by UniProt entry; tags and fusion partners are left off.
UniProt P70398: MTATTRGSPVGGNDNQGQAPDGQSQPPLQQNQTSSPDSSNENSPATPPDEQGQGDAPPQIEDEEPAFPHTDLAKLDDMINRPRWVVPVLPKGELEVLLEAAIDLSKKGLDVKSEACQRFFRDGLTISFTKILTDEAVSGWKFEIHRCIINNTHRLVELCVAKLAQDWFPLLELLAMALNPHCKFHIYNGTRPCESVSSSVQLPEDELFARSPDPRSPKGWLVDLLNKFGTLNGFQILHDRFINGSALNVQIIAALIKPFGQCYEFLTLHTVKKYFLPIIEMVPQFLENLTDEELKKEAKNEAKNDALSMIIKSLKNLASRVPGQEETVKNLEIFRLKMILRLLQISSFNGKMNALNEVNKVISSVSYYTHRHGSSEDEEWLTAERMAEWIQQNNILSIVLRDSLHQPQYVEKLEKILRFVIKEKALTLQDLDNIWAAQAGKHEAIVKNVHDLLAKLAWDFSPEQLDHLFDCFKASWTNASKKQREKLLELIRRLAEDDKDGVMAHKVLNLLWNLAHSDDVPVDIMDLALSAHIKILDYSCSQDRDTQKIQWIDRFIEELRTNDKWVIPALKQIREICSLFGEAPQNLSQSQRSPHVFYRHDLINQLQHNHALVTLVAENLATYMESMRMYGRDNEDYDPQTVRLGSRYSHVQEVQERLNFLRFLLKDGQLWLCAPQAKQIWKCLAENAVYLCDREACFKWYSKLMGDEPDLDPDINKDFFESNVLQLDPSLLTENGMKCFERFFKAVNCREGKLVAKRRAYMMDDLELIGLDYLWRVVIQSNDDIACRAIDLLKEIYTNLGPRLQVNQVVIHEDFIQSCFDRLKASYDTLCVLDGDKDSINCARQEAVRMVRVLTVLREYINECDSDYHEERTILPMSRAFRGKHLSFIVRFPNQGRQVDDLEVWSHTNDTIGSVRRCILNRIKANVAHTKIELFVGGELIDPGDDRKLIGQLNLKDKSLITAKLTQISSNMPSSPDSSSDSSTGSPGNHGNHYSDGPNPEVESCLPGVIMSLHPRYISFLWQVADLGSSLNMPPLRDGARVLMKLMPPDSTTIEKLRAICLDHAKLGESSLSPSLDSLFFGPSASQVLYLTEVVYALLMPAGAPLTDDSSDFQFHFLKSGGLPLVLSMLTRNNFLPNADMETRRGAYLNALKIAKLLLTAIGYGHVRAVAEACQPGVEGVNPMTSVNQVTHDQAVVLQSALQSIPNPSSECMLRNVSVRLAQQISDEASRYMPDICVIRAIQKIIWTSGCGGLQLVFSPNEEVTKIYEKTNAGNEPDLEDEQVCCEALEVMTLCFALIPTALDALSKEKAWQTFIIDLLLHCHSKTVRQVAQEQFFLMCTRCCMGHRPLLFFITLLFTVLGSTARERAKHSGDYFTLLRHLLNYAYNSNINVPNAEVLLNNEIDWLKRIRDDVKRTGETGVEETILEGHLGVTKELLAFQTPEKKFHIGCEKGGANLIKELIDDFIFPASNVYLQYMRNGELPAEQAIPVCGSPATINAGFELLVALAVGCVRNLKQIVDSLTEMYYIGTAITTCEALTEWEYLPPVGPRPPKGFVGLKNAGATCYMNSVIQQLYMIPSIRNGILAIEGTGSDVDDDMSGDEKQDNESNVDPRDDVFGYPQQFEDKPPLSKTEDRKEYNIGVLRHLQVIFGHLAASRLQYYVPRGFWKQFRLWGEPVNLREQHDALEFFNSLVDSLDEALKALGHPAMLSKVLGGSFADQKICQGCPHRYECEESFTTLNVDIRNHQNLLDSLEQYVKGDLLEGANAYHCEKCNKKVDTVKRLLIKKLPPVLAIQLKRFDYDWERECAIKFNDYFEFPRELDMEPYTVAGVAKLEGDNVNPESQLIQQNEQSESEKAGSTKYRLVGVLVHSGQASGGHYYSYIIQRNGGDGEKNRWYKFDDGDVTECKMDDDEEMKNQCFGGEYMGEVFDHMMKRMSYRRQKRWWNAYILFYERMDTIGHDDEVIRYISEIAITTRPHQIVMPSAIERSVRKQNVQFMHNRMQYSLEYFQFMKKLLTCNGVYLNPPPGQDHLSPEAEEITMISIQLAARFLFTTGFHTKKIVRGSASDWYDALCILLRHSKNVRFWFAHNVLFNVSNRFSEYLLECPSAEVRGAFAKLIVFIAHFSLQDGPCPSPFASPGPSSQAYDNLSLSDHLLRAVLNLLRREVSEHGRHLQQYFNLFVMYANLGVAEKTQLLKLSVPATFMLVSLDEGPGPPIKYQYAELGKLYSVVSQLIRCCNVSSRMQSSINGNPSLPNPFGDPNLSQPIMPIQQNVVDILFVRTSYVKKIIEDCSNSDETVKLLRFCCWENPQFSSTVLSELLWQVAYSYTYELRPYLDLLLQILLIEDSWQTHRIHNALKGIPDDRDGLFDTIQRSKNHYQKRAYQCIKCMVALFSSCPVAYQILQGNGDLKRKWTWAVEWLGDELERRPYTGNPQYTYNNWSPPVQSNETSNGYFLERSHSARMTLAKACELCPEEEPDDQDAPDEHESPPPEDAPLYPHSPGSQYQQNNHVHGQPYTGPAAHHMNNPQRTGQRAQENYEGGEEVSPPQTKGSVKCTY
UniProt Q8K4Q0: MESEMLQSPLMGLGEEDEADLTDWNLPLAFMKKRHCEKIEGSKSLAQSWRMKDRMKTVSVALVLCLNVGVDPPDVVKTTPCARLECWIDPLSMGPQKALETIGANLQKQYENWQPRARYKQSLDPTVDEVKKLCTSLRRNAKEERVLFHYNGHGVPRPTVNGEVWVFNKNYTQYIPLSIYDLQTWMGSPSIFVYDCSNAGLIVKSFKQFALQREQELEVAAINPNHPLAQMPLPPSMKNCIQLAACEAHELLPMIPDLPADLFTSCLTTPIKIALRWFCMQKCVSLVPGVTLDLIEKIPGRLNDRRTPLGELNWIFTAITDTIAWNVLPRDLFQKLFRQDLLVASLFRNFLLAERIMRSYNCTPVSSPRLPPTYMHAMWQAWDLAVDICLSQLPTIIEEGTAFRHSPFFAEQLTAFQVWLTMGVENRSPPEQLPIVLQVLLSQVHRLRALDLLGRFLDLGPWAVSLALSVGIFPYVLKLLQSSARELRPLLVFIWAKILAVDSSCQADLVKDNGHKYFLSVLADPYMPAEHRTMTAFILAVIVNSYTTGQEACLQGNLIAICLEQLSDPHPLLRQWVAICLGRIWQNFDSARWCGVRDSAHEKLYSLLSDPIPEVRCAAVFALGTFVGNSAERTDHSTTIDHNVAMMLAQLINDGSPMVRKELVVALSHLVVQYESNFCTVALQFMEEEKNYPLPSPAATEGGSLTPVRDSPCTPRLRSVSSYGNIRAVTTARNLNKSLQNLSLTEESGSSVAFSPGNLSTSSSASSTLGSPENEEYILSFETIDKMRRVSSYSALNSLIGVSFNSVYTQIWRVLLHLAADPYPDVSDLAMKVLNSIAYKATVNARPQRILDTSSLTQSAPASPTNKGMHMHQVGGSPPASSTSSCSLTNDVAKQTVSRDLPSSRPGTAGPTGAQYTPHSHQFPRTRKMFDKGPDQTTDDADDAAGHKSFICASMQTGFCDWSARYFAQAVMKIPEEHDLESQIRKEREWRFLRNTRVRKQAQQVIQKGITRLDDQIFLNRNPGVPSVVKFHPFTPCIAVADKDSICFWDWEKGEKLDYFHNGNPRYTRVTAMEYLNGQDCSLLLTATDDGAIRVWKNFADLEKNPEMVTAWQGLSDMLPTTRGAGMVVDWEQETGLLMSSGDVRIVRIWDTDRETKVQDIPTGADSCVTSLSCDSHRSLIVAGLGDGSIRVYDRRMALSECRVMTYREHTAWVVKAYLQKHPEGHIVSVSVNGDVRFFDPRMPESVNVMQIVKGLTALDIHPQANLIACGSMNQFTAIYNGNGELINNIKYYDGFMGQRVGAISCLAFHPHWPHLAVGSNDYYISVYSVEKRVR
UniProt Q8BSK8: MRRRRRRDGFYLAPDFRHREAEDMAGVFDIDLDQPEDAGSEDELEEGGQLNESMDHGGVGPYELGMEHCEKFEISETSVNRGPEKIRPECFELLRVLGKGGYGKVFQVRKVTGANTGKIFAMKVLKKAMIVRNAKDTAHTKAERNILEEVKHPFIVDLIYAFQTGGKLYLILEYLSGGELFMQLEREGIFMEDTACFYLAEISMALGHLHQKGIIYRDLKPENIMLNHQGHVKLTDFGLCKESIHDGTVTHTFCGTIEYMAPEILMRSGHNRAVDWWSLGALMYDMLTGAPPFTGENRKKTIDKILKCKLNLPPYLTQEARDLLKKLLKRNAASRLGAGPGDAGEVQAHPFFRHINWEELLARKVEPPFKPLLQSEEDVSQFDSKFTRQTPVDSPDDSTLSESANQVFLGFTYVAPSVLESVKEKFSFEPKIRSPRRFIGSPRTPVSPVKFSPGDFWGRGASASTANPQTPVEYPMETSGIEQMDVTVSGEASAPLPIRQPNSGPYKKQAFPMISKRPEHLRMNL

Tests used:
[1] = target: ubiquitin-specific protease 9 located on the X-chromosome (Usp9x), mouse (mouse (endogenous in E14.5 frontal cortex)) (UniProt P70398); experiment: co-IP; endogenous proteins from lysate of E14.5 mouse frontal cortex; IP lysis buffer 20 mM HEPES pH 7.8, 400 mM KCl, 5 mM EDTA, 0.4% NP40, 10% glycerol, 1 mM DTT; Pierce co-immunoprecipitation kit with anti-Usp9x or anti-Raptor antibodies; immunoblot
[2] = target: regulatory-associated protein of mTOR (Raptor), mouse (mouse (endogenous in E14.5 frontal cortex)) (UniProt Q8K4Q0); experiment: as above

binding [1] | binding [2] | Substance
binds weakly |  | p70S6 kinase, mouse (from UniProt Q8BSK8 1-525) (enzyme)
binds |  | regulatory-associated protein of mTOR (Raptor), mouse (from UniProt Q8K4Q0 1-1335)
 | binds | ubiquitin-specific protease 9 located on the X-chromosome (Usp9x), mouse (from UniProt P70398 1-2559) (enzyme)
